PMC1459216
No constants are given. Whether binding was seen depends on the method and setting. Binding calls can cover weak binding; strength is not graded here. For some assays here: In cells and extracts the contact can be indirect.

Legend:
[1] = molecular target: DSP1 (Dorsal Switch Protein 1) (Drosophila melanogaster (endogenous in w1118 embryos)); experiment: co-IP; extracts of 0-14 hour-old w1118 embryos (50 mM Tris pH 7.5, 150 mM NaCl, 1% NP40, 0.1% SDS), affinity-purified anti-DSP1 antibodies on protein A-agarose, overnight 4°C; rabbit serum as mock; western blot with rat anti-Corto
[2] = molecular target: MBP-DSP1 (full-length DSP1) (Drosophila melanogaster); experiment: far-Western, overlay or dot blot; MBP-DSP1 fusion proteins run on SDS-PAGE and transferred to a membrane, incubated with 35S-labeled in vitro translated Corto; phosphorimager; only the target purified

Row | Binder | binding [1] | binding [2]
1 | Corto (protein, UniProt P41046 1-550) MTMAACYANYDMSSLSHGMSALSALQQQQQQQQQQHSQTQQQHHHQQQQQHMYHAAVAAHQQQLLQQQQQQQHHRHHHQPANTSSSSNSRHSHAAATQTQVAAAVANSRQQQQQQQQQQQQQQQQQTASSNSNAAPAPSPQKDYSIPLHVDCSVEYELPNQPKPPAGQRVEPLLMIHPCYFRKMESQRRSPFVNNMHATARAVSSSSLSSGAALGGGGSGAAVATAPSSSAARRGARAATSAQQQQQQQQRYQQQQQQLRQQHQQMSQMSQQAHYPQQQSSLVRQHQQQQQQQQQQQRASSNQSQRQSQSQSQSQSHAANSAAAAAAQASIAAAAAGQWDQLAALAARTALTPHHMLHPHSHYAAKGSGGGAGGGKRDAMISGSYGQTAVASGKLQQSQVQQQQPQQQQQHCLPPPPWDATSMLMDRSPMATVPSNYQAGPDTNPMRLYSATPTAGAASGGSASVGGGGAVSGAGATGAVNTATDKLSGKYRQYLRSQRMHPYAAAASLNLAAAAAAAGQTSFVPFSSAATAVAATPTFQHLPQISCYNV | binds | 
2 | full-length radiolabeled Corto (protein, UniProt P41046 1-550, 35S methionine (radiolabel)) MTMAACYANYDMSSLSHGMSALSALQQQQQQQQQQHSQTQQQHHHQQQQQHMYHAAVAAHQQQLLQQQQQQQHHRHHHQPANTSSSSNSRHSHAAATQTQVAAAVANSRQQQQQQQQQQQQQQQQQTASSNSNAAPAPSPQKDYSIPLHVDCSVEYELPNQPKPPAGQRVEPLLMIHPCYFRKMESQRRSPFVNNMHATARAVSSSSLSSGAALGGGGSGAAVATAPSSSAARRGARAATSAQQQQQQQQRYQQQQQQLRQQHQQMSQMSQQAHYPQQQSSLVRQHQQQQQQQQQQQRASSNQSQRQSQSQSQSQSHAANSAAAAAAQASIAAAAAGQWDQLAALAARTALTPHHMLHPHSHYAAKGSGGGAGGGKRDAMISGSYGQTAVASGKLQQSQVQQQQPQQQQQHCLPPPPWDATSMLMDRSPMATVPSNYQAGPDTNPMRLYSATPTAGAASGGSASVGGGGAVSGAGATGAVNTATDKLSGKYRQYLRSQRMHPYAAAASLNLAAAAAAAGQTSFVPFSSAATAVAATPTFQHLPQISCYNV |  | binds
